According to patent US20220016127A1, “COMPOSITIONS AND METHODS FOR INDUCING APPENDAGE AND LIMB REGENERATION” (priority 2020, published 2022):
At least one structure is not confirmed: it was looked up by name or label, or the drawing left a doubt.

System: Aurelia ephyra
Test: Arm regeneration induction in amputated Aurelia ephyrae
Type: in vivo, Aurelia aurita
Details: factor added to artificial seawater upon amputation
Protocol: Amputation. Strobilated ephyrae were fed daily with rotifers (Brachionus plicatilis) until amputation time. 2-3 days old ephyrae were anesthetized in 400 μM menthol and amputated using a razor blade mounted on an x-acto knife handle. After amputation, ephyrae were let to recover in bubbler cones (FIG. 7). Regeneration was assessed at various times until 1-2 weeks after amputation, before onset of maturation to medusa.
Inducing regeneration. Experimental setup. 0.5-1 L sand settling cones were repurposed as jellyfish aquaria (Nalgene Imhoff; FIG. 7). Each cone was equipped with an airline from a Tetra Whisper air pump 100 to create a gentle vertical current (˜1 bubble/sec, see FIG. 30). The conical geometry eliminates stagnant spots, where the ephyrae could get stuck. In this “bubbler cone” setup, the ephyrae were continually in water current either in the upward air bubble-generated current or the downward self-generated current. 500 mL artificial seawater and 30 ephyrae were placed in each cone to avoid crowding and fouling. Artificial seawater was changed every week. Nutrients. […]
Amputation. […] Regeneration was assessed at various times for 1-2 weeks after amputation, before onset of maturation to medusa. […]

CC(C)n1nc(-c2ccc3oc(N)nc3c2)c2c(N)ncnc21 [Sap, Sapanisertib, reference compound]
effect on arm regeneration / regeneration frequency (in words): dramatically inhibited arm regeneration
